PMC5177774
Results are given in words; binding and its absence hold for the method and conditions named. In cells and extracts the contact can be indirect. Some binding calls cover weakened binding; strength is not graded here. Tags and fused reporters may be left off the sequences shown.

Sequences of proteins named here, by UniProt entry; tags and fusion partners are left off.
UniProt P35222: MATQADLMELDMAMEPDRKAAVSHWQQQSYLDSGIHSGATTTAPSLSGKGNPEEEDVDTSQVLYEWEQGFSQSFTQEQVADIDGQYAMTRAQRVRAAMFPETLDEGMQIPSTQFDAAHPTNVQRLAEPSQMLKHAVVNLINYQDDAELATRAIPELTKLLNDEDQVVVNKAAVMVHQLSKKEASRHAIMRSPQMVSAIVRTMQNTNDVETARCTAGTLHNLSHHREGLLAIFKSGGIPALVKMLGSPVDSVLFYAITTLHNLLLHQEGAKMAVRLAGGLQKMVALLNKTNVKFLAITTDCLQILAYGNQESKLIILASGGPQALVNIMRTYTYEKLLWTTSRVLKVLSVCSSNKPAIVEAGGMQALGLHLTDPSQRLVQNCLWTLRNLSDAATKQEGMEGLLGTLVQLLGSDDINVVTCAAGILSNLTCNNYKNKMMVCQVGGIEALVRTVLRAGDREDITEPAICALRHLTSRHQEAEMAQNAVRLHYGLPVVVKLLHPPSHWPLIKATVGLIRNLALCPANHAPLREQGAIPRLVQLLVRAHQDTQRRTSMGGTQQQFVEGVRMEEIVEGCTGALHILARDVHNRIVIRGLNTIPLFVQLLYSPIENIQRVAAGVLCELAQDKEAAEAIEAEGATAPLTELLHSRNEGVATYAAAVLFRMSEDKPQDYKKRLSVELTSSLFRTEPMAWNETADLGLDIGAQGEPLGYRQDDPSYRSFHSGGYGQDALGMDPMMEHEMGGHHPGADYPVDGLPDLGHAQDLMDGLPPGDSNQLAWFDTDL

Target: T1, flag-Sharpin, full length (Shank-associated RH domain-interacting protein) (human) (UniProt Q9H0F6)
T1 sequence: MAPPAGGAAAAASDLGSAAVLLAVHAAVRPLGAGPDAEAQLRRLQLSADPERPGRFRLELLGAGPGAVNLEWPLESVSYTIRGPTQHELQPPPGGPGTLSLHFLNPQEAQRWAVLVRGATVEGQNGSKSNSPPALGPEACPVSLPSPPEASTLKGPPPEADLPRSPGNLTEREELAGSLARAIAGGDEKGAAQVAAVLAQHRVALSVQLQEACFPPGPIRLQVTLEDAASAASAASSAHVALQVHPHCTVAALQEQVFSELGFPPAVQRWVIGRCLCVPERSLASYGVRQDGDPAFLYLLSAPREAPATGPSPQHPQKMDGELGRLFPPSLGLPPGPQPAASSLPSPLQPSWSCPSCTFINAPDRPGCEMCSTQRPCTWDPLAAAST
Test: co-IP; 293T cells transfected with FG-Sharpin or its deletion mutants; lysis and wash in 50 mM Tris-HCl (pH 7.5), 150 mM NaCl, 0.5% NP-40; antibody 1 h and protein G-Sepharose 1 h at 4 °C; endogenous β-catenin detected by blot

binding: binds
Substance: endogenous β-catenin (from UniProt P35222 1-781)
